# Source: PubChem BioAssay AID504444 (National Center for Advancing Translational Sciences (NCATS), 2011)
# The campaign covered roughly 360,000 compounds. About 7,500 (2.1%) were called active. Inconclusive results, whose numbers are uncertain, are shown with a selection of clear calls. Calls follow the shape of the dose curve; as a rule, active = well fitted inhibition curve with a large enough effect; inconclusive = small, poorly fitted or top-dose-only effect, or effect the other way; inactive = flat fitted curve, though single readings scatter. Potencies of inconclusive entries are doubtful fits and often do not repeat.
# Assay: Nrf2 qHTS screen for inhibitors; also: nearly all actives have a fitted effect of over 60% in size
# Settings: A549 ARE-Fluc reporter, luciferase luminescence, 18-24 h; activity change, negative = inhibition: at 46 µM (top of the series)
# Summary of the method: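 Reporter: ARE-Fluc in A549. Exposure: 18-24 h, 37 °C, 5% CO2, 5% FBS OPTI-MEM. Readouts: fluorescent cytotoxicity (CellTiter-Fluor), then luminescent Nrf2 signal after BugLite.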
# % is scaled to controls: 0 for no effect and ±100 for the full control effect; potency is read from the fitted curve at half-maximal effect.
Compound,"activity change, negative = inhibition",Potency
CCS(=O)(=O)CCSc1nc2ccccc2s1,inactive: 6.45%,–
O=C(Nc1cccc(S(=O)(=O)N2CCCCC2)c1)c1cc2ccccc2o1,–,active: 23.1 µM
CC1CN(C2=NC(=O)/C(=C/c3ccncc3)S2)CC(C)O1 (configuration not stated),inactive: -0.852%,–
O=C(C[C@H]1C[C@H](C(=O)N2CCCCC2)[C@@]2(CCc3ccccc3)c3[nH]c4ccc(Cl)cc4c3CCN2C1=O)NCCCn1ccnc1,–,"inconclusive: 29.1 µM [falling, single point]"
O=C(CCn1c(=O)oc2ccccc21)Nc1ccc2c(c1)OCCO2,–,"inconclusive: 9.2 µM [activator, partial curve]"
COc1ccc(S(=O)(=O)Nc2ccc(C)cc2)cc1N(C)S(=O)(=O)c1ccc(Cl)cc1,–,active: 18.4 µM
Cn1c(Cn2nnc3ccccc32)nnc1SCC(=O)N1c2ccccc2Sc2ccccc21,–,"inconclusive: 29.1 µM [falling, single point]"
CCOC(=O)C1CCN(C(=O)C(C)N(c2ccc(Oc3ccccc3)cc2)S(C)(=O)=O)CC1 (configuration not stated),–,"inconclusive: 32.6 µM [falling, single point]"
Cc1cc(C)cc(OCC(=O)NCCc2nc3ccccc3[nH]2)c1,–,"inconclusive: 1.3 µM [falling, full curve]"
Cc1ccc(NC(=O)Cc2ccc(-n3c(C)nc4cccnc43)cc2)cc1C,–,"inconclusive: 10.3 µM [falling, partial curve, poor fit]"
CC(=O)Nc1cccc(NC(=O)c2ccc(COc3ccccc3)cc2)c1,–,"inconclusive: 1.64 µM [activator, full curve]"
COc1cccc(C(=O)Nc2nnc(SCC(=O)NC3CC3)s2)c1,–,"inconclusive: 3.66 µM [activator, partial curve, poor fit]"
COC(=O)c1c(C)[nH]c(C(=O)/C=C/c2ccccc2F)c1C,–,"inconclusive: 2.31 µM [activator, partial curve]"
Cc1ccc(C2=N/C(=C\N3CCCCC3)C(=O)O2)cc1,–,"inconclusive: 23.1 µM [activator, single point]"
O=C(Cc1ccc(Cl)c(Cl)c1)Nc1ccc(SC(F)F)cc1,–,"inconclusive: 4.11 µM [activator, single point]"
NC(=O)c1ccccc1OCc1nc2ccccc2s1,–,"inconclusive: 7.31 µM [activator, partial curve]"
Cc1coc2cc3oc(=O)c(CCC(=O)NCc4ccc(Cl)cc4)c(C)c3cc12,inactive: -23.8%,–
Cc1ccc(SCCN2CCN(Cc3ccccc3)CC2)cc1,inactive: 10.2%,–
CN(CC(=O)Nc1ccc(Cl)c(C(F)(F)F)c1)C(=O)c1cc(=O)c2ccccc2o1,–,"inconclusive: 13 µM [falling, partial curve]"
CN(C(=O)CSc1nnc(-c2ccccc2F)o1)c1ccccc1,–,"inconclusive: 0.82 µM [activator, partial curve, poor fit]"
Cc1ccc(C(=O)OCC(=O)c2ccc[nH]2)s1,–,"inconclusive: 23.1 µM [activator, single point]"
CCC(=O)Oc1ccc2c(=O)c(-c3ccc4ccccc4n3)c(CC)oc2c1C,inactive: -2.65%,–
COc1ccc(CCNC(=O)CCCOc2cc(=O)n(C)c3ccccc23)cc1OC,–,"inconclusive: 32.6 µM [falling, partial curve, poor fit]"

Compound,"activity change, negative = inhibition",Potency
Cc1c(Cl)ccc2c(C(=O)O)cc(-c3ccccc3)nc12,–,"inconclusive: 18.4 µM [falling, partial curve, poor fit]"
O=C(O)c1ccccc1C(=O)Nc1ccccc1NC(=O)c1ccccc1C(=O)O,–,"inconclusive: 5.17 µM [activator, partial curve, poor fit]"
CCOC(=O)CSc1nc2c(sc(=S)n2-c2ccccc2)c(=O)[nH]1,inactive: -27.4%,–
CCCOc1cccc(C(=O)Nc2cccc(NC(=O)c3ccc(C(C)(C)C)cc3)c2)c1,–,"inconclusive: 4.11 µM [activator, full curve]"
Cc1[nH]c(C)c(C(=O)/C=C/c2ccc([N+](=O)[O-])cc2)c1C,inactive: 4.49%,–
CC1(C(=O)NCCN2CCOCC2)C=CCN1C(=O)c1ccccc1 (configuration not stated),–,"inconclusive: 29.1 µM [activator, single point]"
C=CCOC(=O)C1C(=O)CC(C)(O)C(C(=O)OCC=C)C1c1ccc(OC)cc1 (configuration not stated),inactive: -16.9%,–
COc1ccccc1NC(=O)c1c[nH]c2ccccc12,–,"inconclusive: 2.91 µM [activator, full curve]"
O=S(=O)(/N=C(/NNS(=O)(=O)c1ccccc1)c1ccccc1)c1ccccc1,–,"inconclusive: 18.4 µM [falling, partial curve, poor fit]"
Cc1ccn2cc(CNS(=O)(=O)c3ccc4ccccc4c3)nc2c1,inactive: 10.7%,–
CC(=O)Cc1nsc(Nc2ccc3c(c2)OCCO3)n1,–,"inconclusive: 0.366 µM [activator, full curve, poor fit]"
Cc1ccc(C(=O)N2CCCC(C(=O)c3ccc(Cl)cc3C)C2)cn1 (configuration not stated),inactive: -15.1%,–
Cc1nc2ccc(NS(=O)(=O)c3ccc(F)c(F)c3)cc2s1,–,active: 16.4 µM
O=C(/C=C/Nc1ccc(Cc2ccc(N/C=C/C(=O)C(F)(F)F)cc2)cc1)C(F)(F)F,–,"inconclusive: 4.61 µM [falling, single point]"
O=c1oc2ccccc2n1Cc1cccc(Cl)c1,–,"inconclusive: 10.3 µM [falling, partial curve]"
COc1ccc(N2CCN(C(=O)c3ccc(N(C)S(=O)(=O)c4ccc(OC)cc4)cc3)CC2)cc1,–,active: 25.9 µM
FC(F)(F)c1ccccc1NC(=S)N1CCN(c2ccccn2)CC1,–,"inconclusive: 8.2 µM [falling, partial curve]"
COc1cccc(N2CCN(c3ccc(S(=O)(=O)N4CCCC4)cc3)CC2)c1,–,"inconclusive: 0.146 µM [falling, full curve, poor fit]"
C#CCn1c(=NC(=O)c2ccc(S(=O)(=O)N3CCc4ccccc4C3)cc2)sc2cc(S(N)(=O)=O)ccc21,–,active: 3.26 µM
CCOc1ccc(CCNC(=O)c2nnc(Cc3cc(OC)c(OC)c(OC)c3)o2)cc1OCC,inactive: 5.77%,–
CC(C)c1ccc(Nc2nc(Nc3ccc(Cl)cc3)nc(N3CCOCC3)n2)cc1,inactive: 0.514%,–
CCOC(=O)c1c(-c2ccc(F)cc2)csc1NC(=O)c1c(-c2ccccc2)noc1C,–,"inconclusive: 23.1 µM [activator, single point]"
CC1CCCCC1NC(=O)c1cc2c(=O)n3ccccc3nc2n1C (configuration not stated),–,"inconclusive: 18.4 µM [falling, single point]"

Compound,"activity change, negative = inhibition",Potency
COCCn1c(C)cc(C(=O)CSc2nnnn2C2CCCC2)c1C,–,"inconclusive: 29.1 µM [falling, single point]"
CC1Cc2cc(S(=O)(=O)N3CCC(C(=O)Nc4ccccn4)CC3)ccc2N1C(=O)C1CCC1 (configuration not stated),–,active: 14.6 µM
CC1CN(S(=O)(=O)c2cc(C(=O)N(CCc3ccccc3)Cc3ccccc3)ccc2Cl)CC(C)O1 (configuration not stated),–,active: 7.31 µM
O=C(NCCN1CCOCC1)C12CC3CC(C1)CC(c1ccccc1)(C3)C2,–,"inconclusive: 6.51 µM [activator, single point]"
CN(C)c1ccc(C(=O)/C=C/c2ccccc2)cc1,–,"inconclusive: 14.6 µM [activator, partial curve]"
CCCCCc1c(C)[nH]c2nc3ccccc3n2c1=O,–,"inconclusive: 2.31 µM [activator, partial curve, poor fit]"
COC(=O)C1=C(C)NC(C)=C(C(=O)OC)C1c1ccc(OC(=O)c2ccco2)cc1,inactive: -12.2%,–
COc1cccc(CN(C)C(=O)C23CC4CC(CC(NC(C)=O)(C4)C2)C3)c1OC,inactive: 8.59%,–
CC1CCCN(c2ccc(/C=C(\C#N)c3nn(-c4ccccc4)c(N)c3C#N)cc2[N+](=O)[O-])C1 (configuration not stated),–,"inconclusive: 20.6 µM [falling, partial curve, poor fit]"
CCc1ccc(C(=O)Nc2ccc(OC)c(S(=O)(=O)N3CCCCC3)c2)cc1,–,active: 7.31 µM
O=C(NCc1ccccc1)C(=O)NCC1OCCN1S(=O)(=O)c1ccc(Br)cc1 (configuration not stated),–,"inconclusive: 20.6 µM [falling, partial curve, poor fit]"
O=C(NCc1ccco1)c1cc2c(s1)CCCCC2,–,"inconclusive: 5.17 µM [activator, full curve]"
Cc1ccc(NC(=O)C2C(=O)N(CCO)C3(C)CC2c2ccccc2O3)cc1 (configuration not stated),–,"inconclusive: 29.1 µM [activator, single point]"
CC(=O)Nc1ccc(S(=O)(=O)N2CCSc3ccccc32)cc1,–,"inconclusive: 7.31 µM [falling, partial curve]"
CCc1ccc(NC(=O)CSc2nnnn2C)cc1,–,"inconclusive: 0.366 µM [activator, full curve]"
O=C(Nc1nc2ccc([N+](=O)[O-])cc2s1)C1CCCO1 (configuration not stated),–,"inconclusive: 10.3 µM [activator, partial curve]"
CCOc1ccc(S(=O)(=O)Nc2cccc(C(=O)N3CCN(c4ccccc4O)CC3)c2)cc1,–,"inconclusive: 32.6 µM [falling, single point]"
O=C(c1ccc2c(c1)N(Cc1ccc(F)cc1)CCS2)N1CCOCC1,–,"inconclusive: 29.1 µM [activator, single point]"
CN(c1cccc(Cl)c1)S(=O)(=O)c1cccc(C(=O)Nc2nc3ccccc3[nH]2)c1,–,"inconclusive: 23.1 µM [falling, single point]"
O=C(Nc1ccc(S(=O)(=O)N2CCCC2)cc1)c1ccc([N+](=O)[O-])cc1,–,"inconclusive: 23.1 µM [falling, partial curve, poor fit]"
Cc1ccc([C@@H]2CC=C(C(=O)O)[C@H](c3ccc(C(C)(C)C)cc3)N2S(=O)(=O)c2ccc(C)cc2)cc1,–,active: 18.4 µM

# A stretch of the results above, for reference:
Compound,"activity change, negative = inhibition",Potency
O=C(O)c1ccccc1C(=O)Nc1ccccc1NC(=O)c1ccccc1C(=O)O,–,"inconclusive: 5.17 µM [activator, partial curve, poor fit]"
CCOC(=O)CSc1nc2c(sc(=S)n2-c2ccccc2)c(=O)[nH]1,inactive: -27.4%,–

# As entered above.
# For Potency, CCc1ccc(NC(=O)CSc2nnnn2C)cc1 is entered as inconclusive: 0.366 µM [activator, full curve]
# For Potency, O=C(NCc1ccco1)c1cc2c(s1)CCCCC2 is entered as inconclusive: 5.17 µM [activator, full curve]
# For Potency, Cc1ccc([C@@H]2CC=C(C(=O)O)[C@H](c3ccc(C(C)(C)C)cc3)N2S(=O)(=O)c2ccc(C)cc2)cc1 is entered as active: 18.4 µM
